Measurements reported in the supplement of paper PMC7666118.
The other results are listed elsewhere or left out.

By UniProt entry, the sequences of proteins in these tests, tags left out. Where a name states a change or a piece, a line headed by the entry shows the natural chain unless it says otherwise.
UniProt P61006: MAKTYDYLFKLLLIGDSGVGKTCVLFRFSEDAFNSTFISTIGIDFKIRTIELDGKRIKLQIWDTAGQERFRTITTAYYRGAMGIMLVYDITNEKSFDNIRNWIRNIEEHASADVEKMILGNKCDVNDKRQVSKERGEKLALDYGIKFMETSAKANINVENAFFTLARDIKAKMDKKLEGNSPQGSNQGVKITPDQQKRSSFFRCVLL
UniProt O75127: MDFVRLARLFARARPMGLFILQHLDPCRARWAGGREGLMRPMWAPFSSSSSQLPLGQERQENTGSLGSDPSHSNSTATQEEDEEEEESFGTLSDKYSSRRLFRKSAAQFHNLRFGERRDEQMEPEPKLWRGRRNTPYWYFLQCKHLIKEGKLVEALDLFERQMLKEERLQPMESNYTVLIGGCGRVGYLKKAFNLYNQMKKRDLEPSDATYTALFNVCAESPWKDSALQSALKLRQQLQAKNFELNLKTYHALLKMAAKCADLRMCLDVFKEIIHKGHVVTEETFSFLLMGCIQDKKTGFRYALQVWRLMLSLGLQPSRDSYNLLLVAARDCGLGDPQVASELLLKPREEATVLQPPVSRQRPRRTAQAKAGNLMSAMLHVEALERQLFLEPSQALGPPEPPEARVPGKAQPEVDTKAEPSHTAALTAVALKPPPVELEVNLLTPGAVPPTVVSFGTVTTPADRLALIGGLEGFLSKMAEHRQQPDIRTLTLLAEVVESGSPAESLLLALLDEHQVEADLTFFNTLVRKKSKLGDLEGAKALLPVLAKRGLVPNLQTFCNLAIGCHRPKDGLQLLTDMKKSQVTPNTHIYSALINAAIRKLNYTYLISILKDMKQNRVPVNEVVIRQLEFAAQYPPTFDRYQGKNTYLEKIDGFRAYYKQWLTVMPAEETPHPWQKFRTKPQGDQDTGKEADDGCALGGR
UniProt Q15283: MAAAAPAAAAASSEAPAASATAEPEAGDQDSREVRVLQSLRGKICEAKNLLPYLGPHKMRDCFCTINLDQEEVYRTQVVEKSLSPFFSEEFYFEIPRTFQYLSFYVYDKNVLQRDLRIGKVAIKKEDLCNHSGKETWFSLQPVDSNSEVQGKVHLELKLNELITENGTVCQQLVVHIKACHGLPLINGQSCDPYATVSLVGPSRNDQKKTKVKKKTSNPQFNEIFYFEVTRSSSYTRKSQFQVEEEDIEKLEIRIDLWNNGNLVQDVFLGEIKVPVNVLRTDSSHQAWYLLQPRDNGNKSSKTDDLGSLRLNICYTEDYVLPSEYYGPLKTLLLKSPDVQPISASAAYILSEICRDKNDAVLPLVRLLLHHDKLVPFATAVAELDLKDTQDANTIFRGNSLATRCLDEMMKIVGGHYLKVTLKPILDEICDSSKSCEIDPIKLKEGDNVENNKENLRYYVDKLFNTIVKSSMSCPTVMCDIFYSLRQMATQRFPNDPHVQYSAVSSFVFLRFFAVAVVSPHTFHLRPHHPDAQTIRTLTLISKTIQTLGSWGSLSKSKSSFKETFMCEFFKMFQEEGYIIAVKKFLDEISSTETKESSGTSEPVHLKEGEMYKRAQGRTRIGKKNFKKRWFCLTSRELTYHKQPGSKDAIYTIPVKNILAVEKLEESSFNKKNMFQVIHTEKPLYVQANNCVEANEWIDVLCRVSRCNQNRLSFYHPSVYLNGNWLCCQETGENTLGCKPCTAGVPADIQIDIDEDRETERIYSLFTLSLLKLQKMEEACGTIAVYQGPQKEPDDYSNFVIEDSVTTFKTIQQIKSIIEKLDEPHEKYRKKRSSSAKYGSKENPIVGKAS
UniProt O14818: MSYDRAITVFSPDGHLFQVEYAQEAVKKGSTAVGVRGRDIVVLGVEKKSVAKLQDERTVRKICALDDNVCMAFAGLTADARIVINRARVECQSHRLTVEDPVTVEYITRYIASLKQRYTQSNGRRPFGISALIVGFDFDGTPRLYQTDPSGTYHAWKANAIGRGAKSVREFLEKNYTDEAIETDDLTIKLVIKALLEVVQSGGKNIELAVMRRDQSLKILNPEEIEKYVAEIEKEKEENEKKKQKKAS
UniProt Q9H2M9: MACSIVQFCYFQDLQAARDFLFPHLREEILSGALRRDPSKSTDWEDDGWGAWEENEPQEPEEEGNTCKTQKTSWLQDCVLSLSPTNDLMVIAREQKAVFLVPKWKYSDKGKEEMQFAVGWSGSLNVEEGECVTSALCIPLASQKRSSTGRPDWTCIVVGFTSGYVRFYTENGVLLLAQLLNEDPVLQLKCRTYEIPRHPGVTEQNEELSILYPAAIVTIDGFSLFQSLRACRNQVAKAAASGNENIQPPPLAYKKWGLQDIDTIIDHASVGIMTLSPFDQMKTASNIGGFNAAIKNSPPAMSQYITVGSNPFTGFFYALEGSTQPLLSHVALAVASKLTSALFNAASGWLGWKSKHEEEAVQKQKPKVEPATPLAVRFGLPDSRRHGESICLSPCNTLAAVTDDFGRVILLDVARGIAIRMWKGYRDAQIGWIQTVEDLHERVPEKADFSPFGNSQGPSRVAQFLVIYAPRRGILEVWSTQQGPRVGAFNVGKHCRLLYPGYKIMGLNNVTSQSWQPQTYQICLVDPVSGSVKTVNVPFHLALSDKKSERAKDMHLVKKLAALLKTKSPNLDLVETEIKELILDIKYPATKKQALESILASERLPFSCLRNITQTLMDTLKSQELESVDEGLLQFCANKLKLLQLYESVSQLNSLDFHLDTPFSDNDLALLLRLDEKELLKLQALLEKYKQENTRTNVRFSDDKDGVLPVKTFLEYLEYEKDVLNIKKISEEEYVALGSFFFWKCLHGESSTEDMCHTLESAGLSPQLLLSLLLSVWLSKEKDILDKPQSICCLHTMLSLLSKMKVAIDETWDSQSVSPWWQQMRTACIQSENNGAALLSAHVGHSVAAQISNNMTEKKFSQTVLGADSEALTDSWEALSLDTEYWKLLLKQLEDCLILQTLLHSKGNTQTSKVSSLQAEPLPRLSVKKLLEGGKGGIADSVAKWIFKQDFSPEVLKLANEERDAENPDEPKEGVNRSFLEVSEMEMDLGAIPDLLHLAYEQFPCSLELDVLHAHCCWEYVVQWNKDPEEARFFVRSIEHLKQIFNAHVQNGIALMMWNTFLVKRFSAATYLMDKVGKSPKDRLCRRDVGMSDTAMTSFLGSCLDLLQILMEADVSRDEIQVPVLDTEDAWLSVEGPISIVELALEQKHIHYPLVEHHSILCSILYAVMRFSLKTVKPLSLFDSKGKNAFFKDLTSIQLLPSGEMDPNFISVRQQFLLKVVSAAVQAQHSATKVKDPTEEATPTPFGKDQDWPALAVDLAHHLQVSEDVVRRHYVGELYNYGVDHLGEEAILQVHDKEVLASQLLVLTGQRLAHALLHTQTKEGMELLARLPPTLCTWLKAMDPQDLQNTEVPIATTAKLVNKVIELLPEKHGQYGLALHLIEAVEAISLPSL
UniProt Q86YS6: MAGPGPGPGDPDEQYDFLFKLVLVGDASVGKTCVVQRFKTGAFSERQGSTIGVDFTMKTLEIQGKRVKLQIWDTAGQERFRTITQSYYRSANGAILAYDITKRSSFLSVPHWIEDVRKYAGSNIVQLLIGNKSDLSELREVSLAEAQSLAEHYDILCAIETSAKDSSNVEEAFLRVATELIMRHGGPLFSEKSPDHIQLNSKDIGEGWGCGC
UniProt P61018: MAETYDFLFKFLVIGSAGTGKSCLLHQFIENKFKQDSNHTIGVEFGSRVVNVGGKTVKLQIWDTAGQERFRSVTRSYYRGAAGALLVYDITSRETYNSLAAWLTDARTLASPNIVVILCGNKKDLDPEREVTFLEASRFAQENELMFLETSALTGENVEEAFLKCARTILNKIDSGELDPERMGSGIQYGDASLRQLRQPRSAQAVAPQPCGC
UniProt O43242, whole entry: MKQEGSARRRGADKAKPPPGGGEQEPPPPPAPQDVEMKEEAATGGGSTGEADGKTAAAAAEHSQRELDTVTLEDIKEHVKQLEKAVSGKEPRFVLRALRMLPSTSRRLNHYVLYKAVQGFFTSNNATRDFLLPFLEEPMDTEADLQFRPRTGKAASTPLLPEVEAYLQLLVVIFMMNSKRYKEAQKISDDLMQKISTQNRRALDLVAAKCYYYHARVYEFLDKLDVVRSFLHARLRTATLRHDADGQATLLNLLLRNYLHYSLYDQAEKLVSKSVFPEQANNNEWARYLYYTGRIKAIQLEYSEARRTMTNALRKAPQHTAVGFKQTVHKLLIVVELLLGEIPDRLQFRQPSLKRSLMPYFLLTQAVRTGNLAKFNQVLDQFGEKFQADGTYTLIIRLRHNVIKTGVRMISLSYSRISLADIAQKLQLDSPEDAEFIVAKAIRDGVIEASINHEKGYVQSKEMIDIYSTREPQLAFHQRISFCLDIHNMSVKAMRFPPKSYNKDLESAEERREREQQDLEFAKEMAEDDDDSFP
UniProt Q16576, whole entry: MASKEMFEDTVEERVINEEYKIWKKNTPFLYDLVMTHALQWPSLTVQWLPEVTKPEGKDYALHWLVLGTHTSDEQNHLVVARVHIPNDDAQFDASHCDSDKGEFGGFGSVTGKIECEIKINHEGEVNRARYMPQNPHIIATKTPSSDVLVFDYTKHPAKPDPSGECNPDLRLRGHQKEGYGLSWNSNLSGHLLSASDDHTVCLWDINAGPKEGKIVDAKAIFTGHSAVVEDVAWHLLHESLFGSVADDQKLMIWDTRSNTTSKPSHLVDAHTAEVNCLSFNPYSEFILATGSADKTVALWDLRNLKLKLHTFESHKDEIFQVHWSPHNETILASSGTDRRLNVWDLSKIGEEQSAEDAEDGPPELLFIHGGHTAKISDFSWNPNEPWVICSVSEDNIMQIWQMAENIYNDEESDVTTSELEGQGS
UniProt Q9P2N5: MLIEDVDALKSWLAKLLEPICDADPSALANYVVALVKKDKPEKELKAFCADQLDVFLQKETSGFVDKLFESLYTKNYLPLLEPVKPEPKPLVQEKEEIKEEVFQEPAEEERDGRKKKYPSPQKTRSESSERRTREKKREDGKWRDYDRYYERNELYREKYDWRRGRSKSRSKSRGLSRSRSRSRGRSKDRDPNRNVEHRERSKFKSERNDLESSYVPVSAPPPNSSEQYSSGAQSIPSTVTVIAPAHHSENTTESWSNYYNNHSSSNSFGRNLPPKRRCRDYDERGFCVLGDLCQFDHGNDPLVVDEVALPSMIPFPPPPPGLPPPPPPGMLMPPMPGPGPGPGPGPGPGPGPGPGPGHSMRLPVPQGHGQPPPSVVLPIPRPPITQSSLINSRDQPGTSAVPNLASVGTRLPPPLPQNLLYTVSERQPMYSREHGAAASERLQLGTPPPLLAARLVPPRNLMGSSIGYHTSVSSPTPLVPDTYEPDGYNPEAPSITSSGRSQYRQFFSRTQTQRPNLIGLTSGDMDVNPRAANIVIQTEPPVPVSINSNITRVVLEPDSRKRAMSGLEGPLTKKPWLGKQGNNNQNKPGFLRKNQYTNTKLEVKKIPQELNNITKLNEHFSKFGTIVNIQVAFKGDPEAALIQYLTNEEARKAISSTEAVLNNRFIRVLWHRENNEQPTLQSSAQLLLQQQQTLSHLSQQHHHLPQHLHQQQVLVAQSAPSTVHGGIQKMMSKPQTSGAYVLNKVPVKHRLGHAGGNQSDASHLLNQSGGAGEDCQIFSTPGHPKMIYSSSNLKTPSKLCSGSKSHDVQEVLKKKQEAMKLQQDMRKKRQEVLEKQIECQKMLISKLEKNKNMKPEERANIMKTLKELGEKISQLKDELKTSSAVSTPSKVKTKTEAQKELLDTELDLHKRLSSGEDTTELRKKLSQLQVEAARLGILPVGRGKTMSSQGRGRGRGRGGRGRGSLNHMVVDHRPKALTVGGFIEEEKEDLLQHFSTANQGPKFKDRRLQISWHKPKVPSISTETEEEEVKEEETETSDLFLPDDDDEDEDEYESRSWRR
UniProt P60891: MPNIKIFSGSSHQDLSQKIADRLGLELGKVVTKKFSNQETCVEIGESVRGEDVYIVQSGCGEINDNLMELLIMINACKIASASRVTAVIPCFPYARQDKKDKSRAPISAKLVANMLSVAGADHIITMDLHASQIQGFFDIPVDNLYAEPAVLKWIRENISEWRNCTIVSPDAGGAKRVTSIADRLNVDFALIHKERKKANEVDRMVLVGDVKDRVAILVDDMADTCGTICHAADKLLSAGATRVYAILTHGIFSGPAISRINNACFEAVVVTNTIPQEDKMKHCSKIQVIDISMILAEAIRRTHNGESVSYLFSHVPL
UniProt P20962: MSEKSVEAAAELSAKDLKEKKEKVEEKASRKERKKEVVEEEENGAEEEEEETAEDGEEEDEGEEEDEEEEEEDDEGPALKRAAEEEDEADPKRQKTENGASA
UniProt Q9H477: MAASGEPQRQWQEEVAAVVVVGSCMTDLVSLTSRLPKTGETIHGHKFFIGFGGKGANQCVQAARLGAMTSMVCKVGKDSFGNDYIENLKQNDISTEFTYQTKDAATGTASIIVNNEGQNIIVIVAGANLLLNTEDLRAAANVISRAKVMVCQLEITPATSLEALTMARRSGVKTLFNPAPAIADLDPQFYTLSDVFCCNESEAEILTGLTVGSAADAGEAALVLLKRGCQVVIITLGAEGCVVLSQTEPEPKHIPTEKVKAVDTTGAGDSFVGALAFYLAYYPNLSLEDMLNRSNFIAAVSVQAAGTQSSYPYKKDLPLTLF

Compound: COc1ccc(Cn2ccc3ccc(C(=O)NO)cc32)cc1
Assay: dose-dependent thermal stabilisation call (2D-TPP, DLPTP, 10% FDR) (binary (1 = stabilised)); higher = stabilised by the compound
Conditions: system: HL-60 intact cells; concentration range 0.04-10 µM

Question: How did the “dose-dependent thermal stabilisation call” value turn out when PUS7 (UniProt Q96PZ0) was run?
Answer: inactive: 0

Question: Which “dose-dependent thermal stabilisation call” value does the source give for RAD21 (UniProt O60216) here?
Answer: inactive: 0

Question: For RAB8A (UniProt P61006), which “dose-dependent thermal stabilisation call” value is on record?
Answer: inactive: 0

Question: For PTCD1 (UniProt O75127), which “dose-dependent thermal stabilisation call” value is on record?
Answer: inactive: 0

Question: How did the “dose-dependent thermal stabilisation call” value turn out when RASA2 (UniProt Q15283) was run?
Answer: inactive: 0

Question: Which “dose-dependent thermal stabilisation call” value does the source give for RAB28 (UniProt P51157) here?
Answer: inactive: 0

Question: How did the “dose-dependent thermal stabilisation call” value turn out when PSMB7 (UniProt Q99436) was run?
Answer: inactive: 0

Question: Which “dose-dependent thermal stabilisation call” value does the source give for PTPRA (UniProt P18433) here?
Answer: inactive: 0

Question: With QTRT1 (UniProt Q9BXR0) as the target, how does the “dose-dependent thermal stabilisation call” value read?
Answer: active: 1

Question: RASGRP2 (UniProt Q7LDG7) was tested. Which “dose-dependent thermal stabilisation call” value did it give?
Answer: inactive: 0

Question: With RAD51L1 (UniProt O15315) as the target, how does the “dose-dependent thermal stabilisation call” value read?
Answer: inactive: 0

Question: PSMA7 (UniProt O14818) was tested. Which “dose-dependent thermal stabilisation call” value did it give?
Answer: inactive: 0

Question: For RAB3GAP2 (UniProt Q9H2M9), which “dose-dependent thermal stabilisation call” value is on record?
Answer: inactive: 0

Question: With PRMT5 (UniProt O14744) as the target, how does the “dose-dependent thermal stabilisation call” value read?
Answer: inactive: 0

Question: For RAN (UniProt P62826), which “dose-dependent thermal stabilisation call” value is on record?
Answer: inactive: 0

Question: For PRPF4B, which “dose-dependent thermal stabilisation call” value is on record?
Answer: inactive: 0

Question: With RAB43 (UniProt Q86YS6) as the target, how does the “dose-dependent thermal stabilisation call” value read?
Answer: inactive: 0

Question: For PTEN (UniProt P60484), which “dose-dependent thermal stabilisation call” value is on record?
Answer: inactive: 0

Question: With PTDSS2 (UniProt Q9BVG9) as the target, how does the “dose-dependent thermal stabilisation call” value read?
Answer: inactive: 0

Question: How did the “dose-dependent thermal stabilisation call” value turn out when RAB4B (UniProt P61018) was run?
Answer: inactive: 0

Question: With RBM14 (UniProt Q96PK6) as the target, how does the “dose-dependent thermal stabilisation call” value read?
Answer: inactive: 0

Question: With PSMD3 (UniProt O43242) as the target, how does the “dose-dependent thermal stabilisation call” value read?
Answer: inactive: 0

Question: For RBBP7 (UniProt Q16576), which “dose-dependent thermal stabilisation call” value is on record?
Answer: inactive: 0

Question: For RAB11FIP1 (UniProt Q6WKZ4), which “dose-dependent thermal stabilisation call” value is on record?
Answer: inactive: 0

Question: Which “dose-dependent thermal stabilisation call” value does the source give for RBM27 (UniProt Q9P2N5) here?
Answer: inactive: 0

Question: How did the “dose-dependent thermal stabilisation call” value turn out when RBM33 (UniProt Q96EV2) was run?
Answer: inactive: 0

Question: With PRPS1 (UniProt P60891) as the target, how does the “dose-dependent thermal stabilisation call” value read?
Answer: active: 1

Question: RAB5C (UniProt P51148) was tested. Which “dose-dependent thermal stabilisation call” value did it give?
Answer: inactive: 0

Question: With PTMS (UniProt P20962) as the target, how does the “dose-dependent thermal stabilisation call” value read?
Answer: inactive: 0

Question: With PSMC5 (UniProt P62195) as the target, how does the “dose-dependent thermal stabilisation call” value read?
Answer: inactive: 0

Question: With RBKS (UniProt Q9H477) as the target, how does the “dose-dependent thermal stabilisation call” value read?
Answer: inactive: 0

Question: How did the “dose-dependent thermal stabilisation call” value turn out when RAE1 (UniProt P78406) was run?
Answer: inactive: 0

Question: Which “dose-dependent thermal stabilisation call” value does the source give for R3HDM1 (UniProt Q15032) here?
Answer: inactive: 0

Question: For RAP1B (UniProt P61224), which “dose-dependent thermal stabilisation call” value is on record?
Answer: inactive: 0

Question: How did the “dose-dependent thermal stabilisation call” value turn out when PSMB5 (UniProt P28074) was run?
Answer: inactive: 0

Question: Which “dose-dependent thermal stabilisation call” value does the source give for PTGR2 (UniProt Q8N8N7) here?
Answer: inactive: 0

Question: Which “dose-dependent thermal stabilisation call” value does the source give for PXN (UniProt P49023) here?
Answer: inactive: 0
